Measured values reported in patent US20210369684A1 (MOUNT TAM THERAPEUTICS, INC., priority 2018, published 2021).
Several values for one entry are separate records, joined by “and”; a condition that tells them apart may be missing. Equal entries are not always repeated. Further values from the same series stand in other lists.

Test: Whole blood concentrations after IP administration to mice (LC-MS/MS)
Type: in vivo, mouse
Details: 10 mg/kg IP QD x 3 days, Day 1, 2.00 h
Experimental: Shown below are whole blood concentrations following administration of the compound of Formula II to mice. The compound of Formula II was administered to mice at 2 mg/kg or 10 mg/kg for three days and the concentration of the compound in whole blood determined. These determinations were made using protein precipitation, liquid chromatography (LC), and mass spectrometry (MS/MS). Ten μl aliquots of whole blood and matrix calibration standards were distributed in a 96-well plate; 10 μl aliquots of blank matrix for matrix blanks and control blanks were included as controls. Ten μl of water was added to each sample followed by vortexing. One hundred sixty […] of internal standard was added to each sample except the matrix blanks; 160 μl 70:30 water:acetonitrile (ACN) was added to matrix blanks. This was followed by a […]. One hundred fifty μl of the resultant supernatant was then transferred to a new 96-well plate and the samples blown to dryness at 35° C. The resultant product was then reconstituted with 90 μl ACN.

Question: For `CO[C@H]1C[C@@H]2CC[C@@H](C)[C@@](O)(C2)C(=O)C(=O)N2CCCC[C@H]2C(=O)O[C@H]([C@H](C)C[C@H]2C[C@H]3C[C@@H]2C[C@@H]3O)CC(=O)[C@H](C)/C=C(\C)[C@@H](O)[C@@H](OC)C(=O)[C@H](C)C[C@H](C)/C=C/C=C/C=C/1C` [Formula II, C37-[(1R,2S,4R,5S)-5-hyhroxybicyclo[2.2.1]heptane] rapamycin], which “Formula II Concentrations in Mouse Whole Blood” value (individual animals 10, 11, 12) is on record?
Answer: 869 ng/mL and 503 ng/mL

Question: What about the “Formula II Concentrations in Mouse Whole Blood, Mean” value (mean) of the same compound?
Answer: 722 ng/mL
